Experimental data as given in the supplement of paper PMC10470496.
Counter-ions that a name gives are not always drawn. Some of the results follow. Many values rest on one well or one pass, so single values are uncertain.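 The three strains are clinical Candida auris isolates from the CDC resistance isolate bank, from clades III, IV and I, grown in RPMI-1640 at 35°C. Growth is background-corrected OD600 relative to vehicle-only wells on the same plate; a hit meant over 50% inhibition in at least two strains plus a plate-corrected B-score above 0.1.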

Columns and labels:
Assay in all cases: growth relative to vehicle control (OD600 ratio) (fraction); higher = less inhibition
Settings in all cases: 24 h
C. auris AR-384 = system: C. auris AR-384
C. auris AR-386 = system: C. auris AR-386
C. auris AR-387 = system: C. auris AR-387

Row | SMILES | growth (C. auris AR-384; 1 µM) | growth (C. auris AR-384; 10 µM) | growth (C. auris AR-386; 1 µM) | growth (C. auris AR-386; 10 µM) | growth (C. auris AR-387; 1 µM) | growth (C. auris AR-387; 10 µM)
1 | CC(C)NCC(O)COc1ccc(COCCOC(C)C)cc1 (stereo not given) [Bisoprolol fumarate] | 0.85 | 1.14 | 1.17 | 0.58 | 0.98 | 0.67
2 | CC(O)(P(=O)(O)O)P(=O)(O)O [Etidronate] | 0.84 | 0.7 | 0.72 | 0.66 | 0.7 | 1.11
3 | CCN1CCCC1CNC(=O)c1cc(S(N)(=O)=O)ccc1OC (stereo not given) [Sulpiride] | 0.69 | 0.9 | 0.72 | 0.79 | 0.84 | 0.79
4 | C[C@]12C=CC(=O)C=C1CC[C@@H]1[C@@H]2[C@@H](O)C[C@@]2(C)[C@H]1CC[C@]2(O)C(=O)CO [Prednisolone] | 0.49 | 0.56 | 0.69 | 0.88 | 0.76 | 0.76
5 | CN(C)/N=N/c1[nH]cnc1C(N)=O [Dacarbazine] | 1.23 | -0.01 | 0.65 | 0.83 | 0.82 | 1.08
6 | CCOc1ccc2ccccc2c1C(=O)N[C@@H]1C(=O)N2[C@@H]1SC(C)(C)[C@@H]2C(=O)O [Nafcillin Sodium] | 0.92 | 0.83 | 0.82 | 0.98 | 0.85 | 0.8
7 | C=C[C@@H]1C[C@]1(NC(=O)[C@@H]1C[C@@H]2CN1C(=O)[C@H](C(C)(C)C)NC(=O)O[C@@H]1C[C@H]1CCCCCc1nc3ccc(OC)cc3nc1O2)C(=O)NS(=O)(=O)C1CC1 [Grazoprevir] | 1.03 | 1.25 | 0.94 | 1.4 | 1.25 | 1.19
8 | Cc1c(O)cccc1C(=O)N[C@@H](CSc1ccccc1)[C@H](O)CN1C[C@H]2CCCC[C@H]2C[C@H]1C(=O)NC(C)(C)C [Nelfinavir Mesylate] | 0.77 | 1.05 | 0.82 | 0.81 | 0.94 | 0.99
9 | CCCCCN(C)CCC(O)(P(=O)(O)O)P(=O)(O)O [Ibandronate sodium] | 0.98 | 1.01 | 0.93 | 0.71 | 0.91 | 1.03
10 | Cc1ccc(-n2nc(C(C)(C)C)cc2NC(=O)NCc2cc(F)ccc2Oc2ccc3c(cnn3CCO)c2)cc1 [Pexmetinib (ARRY-614)] | 1.14 | 0.91 | 0.87 | 0.79 | 1.09 | 0.99
11 | CC1(C)CCC(CN2CCN(c3ccc(C(=O)NS(=O)(=O)c4ccc(NCC5CCOCC5)c([N+](=O)[O-])c4)c(Oc4cnc5[nH]ccc5c4)c3)CC2)=C(c2ccc(Cl)cc2)C1 [Venetoclax (ABT-199, GDC-0199)] | 1.34 | 0.99 | 0.63 | 0.82 | 0.78 | 0.84
12 | CN(C)CCc1c[nH]c2ccc(Cn3cncn3)cc12 [Rizatriptan Benzoate] | 0.95 | 1.37 | 1.42 | 1.09 | 0.92 | 0.88
13 | CC(C)(C)CC(C)(C)c1ccc(OCCOCC[N+](C)(C)Cc2ccccc2)cc1 [Benzethonium Chloride] | 0.97 | 0.72 | 0.67 | 0.09 | 0.74 | 0.82
14 | Cc1ccc(S(=O)(=O)NC(=O)NN2CC3CCCC3C2)cc1 (stereo not given) [Gliclazide] | 1 | 1.04 | 1.11 | 0.89 | 0.66 | 0.58
15 | CNC[C@H](O)c1cccc(O)c1 [Phenylephrine HCl] | 1.03 | 1.06 | 0.96 | 1.78 | 1.39 | 1.48
16 | Cc1nc(Nc2ncc(C(=O)Nc3c(C)cccc3Cl)s2)cc(N2CCN(CCO)CC2)n1 [Dasatinib] | 0.77 | 0.48 | 0.67 | 0.76 | 0.8 | 0.75
17 | CC(=O)OCC(=O)[C@@]1(O)CC[C@H]2[C@@H]3CCC4=CC(=O)C=C[C@]4(C)[C@H]3[C@@H](O)C[C@@]21C [Prednisolone Acetate] | 0.88 | 1.11 | 0.85 | 1.24 | 0.78 | 0.86
18 | CC(C)NCC(O)c1cc(O)cc(O)c1 (stereo not given) [Metaproterenol Sulfate] | 1.07 | 1 | 0.89 | 1.01 | 0.84 | 0.76
19 | COc1cc2nc(N3CCN(C(=O)c4ccco4)CC3)nc(N)c2cc1OC [Prazosin HCl] | 0.89 | 0.64 | 0.7 | 1.04 | 0.77 | 0.77
20 | Nc1cc(C(Cl)=C(Cl)Cl)c(S(N)(=O)=O)cc1S(N)(=O)=O [Clorsulon] | 1.12 | 0.89 | 1.29 | 1 | 0.88 | 0.66
21 | COc1cc(C)c(/C=C/C(C)=C/C=C/C(C)=C/C(=O)O)c(C)c1C [Acitretin] | 1.07 | 1.38 | 1.19 | 0.67 | 0.99 | 1.01
22 | O=c1[nH]c(=O)n([C@H]2C[C@H](O)[C@@H](CO)O2)cc1I [Idoxuridine] | 0.97 | 0.89 | 1.11 | 1.12 | 1.07 | 1.1
23 | NC(CO)(CO)CO [Trometamol] | 0.72 | 0.75 | 0.74 | 0.72 | 0.53 | 0.77
24 | c1cnc2cc3c(cc2n1)[C@@H]1CNC[C@H]3C1 [Varenicline Tartrate] | 0.77 | 0.7 | 0.77 | 0.74 | 0.88 | 0.8
25 | CSCCNc1nc(SCCC(F)(F)F)nc2c1ncn2[C@@H]1O[C@H](COP(=O)(O)OP(=O)(O)C(Cl)(Cl)P(=O)(O)O)[C@@H](O)[C@H]1O [Cangrelor Tetrasodium] | 0.64 | 0.67 | 0.82 | 0.91 | 0.7 | 0.72
26 | C[C@H](CCC(=O)O)[C@H]1CC[C@H]2[C@@H]3[C@@H](O)C[C@@H]4C[C@H](O)CC[C@]4(C)[C@H]3CC[C@]12C [Ursodiol] | 0.8 | 0.54 | 0.66 | 0.9 | 0.65 | 0.98
27 | O=c1[nH]c(=O)n([C@H]2C[C@H](O)[C@@H](CO)O2)cc1F [Floxuridine] | 0.99 | 0.58 | 0.82 | 0.58 | 0.92 | 0.27
28 | CNC(=O)c1cc(Oc2ccc(NC(=O)Nc3ccc(Cl)c(C(F)(F)F)c3)c(F)c2)ccn1 [Regorafenib (BAY 73-4506)] | 1.01 | 1.38 | 1.15 | 0.58 | 0.88 | 0.78
29 | COc1ccccc1OCC(O)CO (stereo not given) [Guaifenesin] | 1.03 | 0.84 | 0.94 | 0.86 | 1.01 | 0.94
30 | N=C(N)NS(=O)(=O)c1ccc(N)cc1 [Sulfaguanidine] | 0.84 | 0.77 | 0.75 | 0.78 | 0.79 | 0.67

Entries from the list above that contain an aryl methoxy group, in the order listed:
Row | SMILES | growth (C. auris AR-384; 1 µM) | growth (C. auris AR-384; 10 µM) | growth (C. auris AR-386; 1 µM) | growth (C. auris AR-386; 10 µM) | growth (C. auris AR-387; 1 µM) | growth (C. auris AR-387; 10 µM)
3 | CCN1CCCC1CNC(=O)c1cc(S(N)(=O)=O)ccc1OC (stereo not given) [Sulpiride] | 0.69 | 0.9 | 0.72 | 0.79 | 0.84 | 0.79
7 | C=C[C@@H]1C[C@]1(NC(=O)[C@@H]1C[C@@H]2CN1C(=O)[C@H](C(C)(C)C)NC(=O)O[C@@H]1C[C@H]1CCCCCc1nc3ccc(OC)cc3nc1O2)C(=O)NS(=O)(=O)C1CC1 [Grazoprevir] | 1.03 | 1.25 | 0.94 | 1.4 | 1.25 | 1.19
19 | COc1cc2nc(N3CCN(C(=O)c4ccco4)CC3)nc(N)c2cc1OC [Prazosin HCl] | 0.89 | 0.64 | 0.7 | 1.04 | 0.77 | 0.77
21 | COc1cc(C)c(/C=C/C(C)=C/C=C/C(C)=C/C(=O)O)c(C)c1C [Acitretin] | 1.07 | 1.38 | 1.19 | 0.67 | 0.99 | 1.01
29 | COc1ccccc1OCC(O)CO (stereo not given) [Guaifenesin] | 1.03 | 0.84 | 0.94 | 0.86 | 1.01 | 0.94
